Like-named read-outs stand apart in the source and are kept apart here. No constants are given. Whether binding was seen depends on the method and setting. For some assays here: Binding seen in cells or lysates may run through a third protein. Some results given as binding are weak or reduced against the parent protein; the word gives no strength. For some assays here: Tags and fused reporters may be left off the sequences shown.
What was measured:
[1] = target: T1, SMYD3 (endogenous) (human (endogenous in MDA-MB-231)) (UniProt Q9H7B4); assay: co-IP; endogenous proteins, IP with SMYD3 antibodies in control and ZNF8 knockout MDA-MB-231 cells; also with activation of the TGF-β pathway
T1 sequence: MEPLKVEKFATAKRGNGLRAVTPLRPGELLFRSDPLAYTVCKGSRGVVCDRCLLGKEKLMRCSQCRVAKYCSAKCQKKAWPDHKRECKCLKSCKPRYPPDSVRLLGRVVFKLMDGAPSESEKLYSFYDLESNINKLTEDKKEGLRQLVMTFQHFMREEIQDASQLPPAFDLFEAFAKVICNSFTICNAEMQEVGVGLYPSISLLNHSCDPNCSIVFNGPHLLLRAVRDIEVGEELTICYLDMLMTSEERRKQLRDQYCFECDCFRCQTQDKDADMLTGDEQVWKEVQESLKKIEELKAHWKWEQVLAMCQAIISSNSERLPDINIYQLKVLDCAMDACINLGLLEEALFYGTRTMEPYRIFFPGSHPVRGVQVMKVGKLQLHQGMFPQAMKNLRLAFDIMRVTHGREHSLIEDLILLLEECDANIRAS

Protein sequences, listed by entry. Tags and fused reporters are not part of them. Lines headed by an entry give the natural chain unless they say otherwise; changes in a name come on top.
UniProt P17098: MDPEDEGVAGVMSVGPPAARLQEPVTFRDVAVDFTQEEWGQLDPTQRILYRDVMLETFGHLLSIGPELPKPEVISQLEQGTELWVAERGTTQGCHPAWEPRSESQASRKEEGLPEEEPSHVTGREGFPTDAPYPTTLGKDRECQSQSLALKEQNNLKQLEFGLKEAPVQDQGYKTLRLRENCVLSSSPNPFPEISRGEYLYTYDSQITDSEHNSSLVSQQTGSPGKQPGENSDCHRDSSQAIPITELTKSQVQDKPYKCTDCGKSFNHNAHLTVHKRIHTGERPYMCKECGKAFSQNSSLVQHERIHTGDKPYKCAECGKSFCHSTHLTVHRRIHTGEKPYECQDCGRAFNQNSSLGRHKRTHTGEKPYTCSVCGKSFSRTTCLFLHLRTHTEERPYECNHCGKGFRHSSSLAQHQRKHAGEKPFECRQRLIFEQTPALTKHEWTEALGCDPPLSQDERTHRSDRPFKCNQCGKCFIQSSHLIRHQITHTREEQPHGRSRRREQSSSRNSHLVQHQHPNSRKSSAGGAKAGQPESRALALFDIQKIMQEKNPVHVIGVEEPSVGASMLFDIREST
UniProt P84022: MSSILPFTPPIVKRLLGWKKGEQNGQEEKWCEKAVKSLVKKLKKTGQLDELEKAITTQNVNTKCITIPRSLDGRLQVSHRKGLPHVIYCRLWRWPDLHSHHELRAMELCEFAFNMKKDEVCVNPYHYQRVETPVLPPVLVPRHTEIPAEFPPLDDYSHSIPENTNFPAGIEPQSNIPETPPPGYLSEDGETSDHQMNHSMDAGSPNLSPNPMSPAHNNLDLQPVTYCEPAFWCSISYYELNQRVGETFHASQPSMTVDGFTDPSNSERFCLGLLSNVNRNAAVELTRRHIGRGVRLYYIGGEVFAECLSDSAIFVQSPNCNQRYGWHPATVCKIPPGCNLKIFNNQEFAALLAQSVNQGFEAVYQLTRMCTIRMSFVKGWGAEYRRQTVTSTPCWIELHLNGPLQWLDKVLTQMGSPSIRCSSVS

[2] = target: ZNF8 (endogenous) (human (endogenous in MDA-MB-231, MCF-7, T47D)) (UniProt P17098); assay: co-IP; endogenous proteins, IP with anti-ZNF8 antibodies in MDA-MB-231, MCF-7 and T47D cells; lysis buffer 200 mM KCl, 20 mM Tris-HCl pH 7.9, 0.1% NP-40; overnight at 4 °C
Myc-tagged Smad3 = Myc-tagged Smad3 (UniProt P84022); assay: co-IP; IP with anti-Myc or anti-Flag antibody in HEK293T cells co-transfected with Flag- and Myc-tagged proteins and their deletion mutants or domains
Flag-SMYD3 = target: T2, Flag-SMYD3 (UniProt Q9H7B4); assay: as above
T2 sequence: T1 sequence

GST-ZNF8 [3] = target: GST-ZNF8 (UniProt P17098); assay: pull-down; 1 µg GST fusion protein immobilised on Glutathione-Sepharose 4B, incubated with 6× His-tagged protein for 2 hours at 4 °C; 120 mM KCl, 20 mM Tris-HCl pH 7.9, 5 mM MgCl2, 0.2% NP-40; western blot; both purified
His-Smad3 = His-Smad3 (UniProt P84022); assay: pull-down; Ni-NTA pulldown with His-Smad3, immunoblotting with anti Smad3 and ZNF8 antibodies; both purified
Myc-ZNF8 [4] = target: Myc-ZNF8 (UniProt P17098); assay: co-IP; IP with anti-Myc antibody in MDA-MB-231 cells co-transfected with Myc-ZNF8 and Flag-Smad3, with TGF-β1 treatment
Myc-ZNF8 [5] = target: Myc-ZNF8 (UniProt P17098); assay: co-IP; IP with anti-Myc or anti-Flag antibody in HEK293T cells co-transfected with Flag- and Myc-tagged proteins and their deletion mutants or domains
[6] = target: ZNF8 (endogenous) (human (endogenous in MDA-MB-231, MCF-7, T47D)) (UniProt P17098); assay: co-IP; endogenous proteins, IP with anti-ZNF8 antibodies in MDA-MB-231, MCF-7 and T47D cells; lysis buffer 200 mM KCl, 20 mM Tris-HCl pH 7.9, 0.1% NP-40; overnight at 4 °C; remark: listed apart in the source
GST-ZNF8 [7] = target: GST-ZNF8 (UniProt P17098); assay: pull-down; 1 µg GST fusion protein immobilised on Glutathione-Sepharose 4B, incubated with 6× His-tagged protein for 2 hours at 4 °C; 120 mM KCl, 20 mM Tris-HCl pH 7.9, 5 mM MgCl2, 0.2% NP-40; western blot; both purified; remark: listed apart in the source
GST-Smad3 = GST-Smad3 (UniProt P84022); assay: as above

Molecule: Smad3 (endogenous) (from UniProt P84022 1-425)
- binding [1]: binds
- binding [2]: binds

Molecule: Flag-ZNF8 (from UniProt P17098 1-575)
- binding (Myc-tagged Smad3): binds

Molecule: Myc-ZNF8 (from UniProt P17098 1-575)
- binding (Flag-SMYD3): binds

Molecule: His-Smad3 (from UniProt P84022 1-425)
- binding (GST-ZNF8 [3]): binds

Molecule: GST-ZNF8 (from UniProt P17098 1-575)
- binding (His-Smad3): binds

Molecule: Flag-Smad3 (from UniProt P84022 1-425)
- binding (Myc-ZNF8 [4]): binds
- binding (Myc-ZNF8 [5]): binds

B1: SMYD3 (endogenous) (protein, UniProt Q9H7B4 1-428)
chain: T1 sequence
- binding [6]: binds

B2: 6× His-tagged SMYD3 (protein, UniProt Q9H7B4 1-428)
chain: T1 sequence
- binding (GST-ZNF8 [7]): binds
- binding (GST-Smad3): binds
